# Laboratory results: PubChem BioAssay AID504793 (Drosophila RNAi Screening Center, 2011)
# Assay: 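Knock-downs allowing continued mitosis even though DNA is damaged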 (primary screen)
# Cell system: Drosophila S2R+ cells
# Reagent: long dsRNA against Drosophila genes, about 0.25 µg dsRNA per well
# Duration: 4 days of dsRNA, then 4 hours of drug before read-out
# Treatment: doxorubicin 0.5 µM for 4 hours to cause double-strand breaks, in cells also given a low, harmless dose of dsRNA against nbs to sensitise the assay
# Read-out: 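Mitotic index as the number of phospho-histone H3-positive cells in each well following doxorubicin, given as raw counts without normalisation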
# Reading the numbers: mitotic cells: higher = more cells in mitosis, weaker G2 arrest
# Call rule: 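Genes are called active only when high mitotic counts were reproduced with independent dsRNAs and mitosis was checked for delay without damage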
# Calls: active = confirmed in follow-up tests; inactive = not confirmed
# The screen tested about 23,000 reagents; shown is a random part of those with a known target gene and a result. In the full data, 62 (0.27%) are marked active. 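Calls come from follow-up tests whose scores are not deposited, so confirmed genes may have low counts here; counts are not normalised per plate.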 Raw values are not corrected between plates. The numbers tell different reagents against one gene apart. A plus sign joins genes that one reagent is predicted to hit. Reagent sequences are not shown.
target,dsRNA no.,"mitotic cells, replicate 1",outcome
CG3502 + CG9863,1,3,inactive
Or33b (Odorant receptor 33b),1,7,inactive
CG8064,1,8,inactive
eIF1 (eukaryotic translation initiation factor 1),1,4,inactive
eIF1 (eukaryotic translation initiation factor 1),2,3,inactive
CG17237,1,4,inactive
drl (derailed),1,3,inactive
drl (derailed),2,7,inactive
mago (mago nashi),1,6,inactive
Dbp73D (Dead box protein 73D),1,3,inactive
dmt (dalmatian),1,45,inactive
Obp18a (Odorant-binding protein 18a),1,2,inactive
yata,1,8,inactive
CG13575,1,8,inactive
CG13575,2,6,inactive
CG9084,1,6,inactive
CG2269,1,7,inactive
CG14903,1,3,inactive
Cyfip (Cytoplasmic FMR1 interacting protein),1,4,inactive
sPLA2 (secretory Phospholipase A2),1,9,inactive
sPLA2 (secretory Phospholipase A2),2,5,inactive
spn-B (spindle B),1,4,inactive
spn-B (spindle B),2,8,inactive
a5 (antennal protein 5),1,6,inactive
Es2,1,7,inactive
Es2,2,11,inactive
Ype (Yippee),1,5,inactive
CG16736,1,4,inactive
Trm1 (tRNA methyltransferase 1),1,7,inactive
Ald1 (Aldolase 1),1,26,active
Ald1 (Aldolase 1),2,26,active
CG30050,1,8,inactive
CG30324,1,5,inactive
CG30324,2,6,inactive
CG1888,1,5,inactive
Mulk (Multi-substrate lipid kinase),1,3,inactive
Hmt4-20 (Histone methyltransferase 4-20),1,4,inactive
Hmt4-20 (Histone methyltransferase 4-20),2,7,inactive
CG33992 (retired record) + CG43755,1,8,inactive
RhoGEF4 (Rho guanine nucleotide exchange factor 4),1,3,inactive
RhoGEF4 (Rho guanine nucleotide exchange factor 4),2,6,inactive
CG8461,1,8,inactive
CG32815,1,19,inactive
CG32815,2,5,inactive
Jon65Ai (Jonah 65Ai),1,1,inactive
Jon65Ai (Jonah 65Ai),2,6,inactive
Mgtor (Megator),1,5,inactive
CG14054,1,17,inactive
CG11911,1,5,inactive
CG11911,2,7,inactive
Sdb (SAXO downstream of blistered),1,8,inactive
Sdb (SAXO downstream of blistered),2,7,inactive
Sdb (SAXO downstream of blistered),3,5,inactive
Osi1 (Osiris 1),1,5,inactive
Targ2 (Terminal ADP-ribose protein glycohydrolase 2),1,9,inactive
Vps15 (Vacuolar protein sorting 15),1,8,inactive
RpL3 (Ribosomal protein L3),1,10,inactive
Pp2C1 (Protein phosphatase 2C),1,9,inactive
Pp2C1 (Protein phosphatase 2C),2,7,inactive
mthl15 (methuselah-like 15),1,6,inactive
sage (salivary gland-expressed bHLH),1,7,inactive
sage (salivary gland-expressed bHLH),2,14,inactive
CG33096,1,8,inactive
CG33096,2,3,inactive
RpL17 (Ribosomal protein L17),1,6,inactive
RpL17 (Ribosomal protein L17),2,7,inactive
CG17049 (retired record),1,8,inactive
CG15631,1,8,inactive
Ir87a (Ionotropic receptor 87a),1,3,inactive
Ir87a (Ionotropic receptor 87a),2,8,inactive
CG18748,1,4,inactive
Rai1 (Rat1 Interacting Protein 1),1,12,inactive
Rai1 (Rat1 Interacting Protein 1),2,8,inactive
alpha-Est1 (alpha-Esterase-1),1,4,inactive
Fuca (alpha-L-fucosidase),1,5,inactive
